In patent US20110243854A1, “Methods and systems for identifying modulators of longevity” (The Regents of the University of California, priority 2007, published 2011) one finds body weight data, which are given here for one compound.

The nature of this series: Body weight of cAMP analog-fed flies. As to conditions: male and female w^1118 flies fed 1 μM and 10 μM, versus controls. It is filed as in vivo, Drosophila melanogaster.

`CCCC(=O)Nc1ncnc2c1ncn2[C@@H]1O[C@@H]2COP(=O)(O)O[C@H]2[C@H]1OC(=O)CCC` [db-cAMP, dibutyryl-cAMP]: the body weight entry is “remained the same as controls”. Besides, where the note is “listed as dibutyryl—cAMP”, the body weight result was “did not affect body weight”.
